These are yes or no findings as the source states them, for the method shown. Some entries that bind do so weakly or less than the wild type. Each block holds one binder with its values, some of them ahead of it.
How the values were obtained:
Experiment in all cases: anti-HA immunoblot of lysates of transfected HEK293T cells; band at 2x the expected size (homodimer)
MG153-2 = target: MG153-2
MG153-1 = target: MG153-1
MG153-3 = target: MG153-3

binding (MG153-2): binds
B1: MG153-2 (enzyme, not shown: small tags and cut ends)
chain: MDTSSLMEQILSKDNLNAAYLQVVRNKGAAGVDGMTVEELGAYLSENGESIREQLRTRKYRPQPVRRAEISKPDGGVRKLGVPTVVDRFVQQAVAQVLTPIFEEQFHDHSYGFRPNRCAQQAVLKALEMMNDGHSWIVDIDLAKFFDTVDHDKLMTIFGRTIKDGDVISVVRKFLVSGVMIDDEYEDTIVGTPQGGNISPLLANIMLNELDKELEARGLDFVRYADDLIIMVGSRQAADRVMKSVTRFIEERLGLKVNAEKSKVDKPKGIKYLGFGFYFDSFAKAYKARPHPKAVAKFKAQMKKLTCRSWGVSNSYKVLKLNQLIRGWINYFRIGSMIELCKRLDENIRFRLRMCIWKHWKTPKNRAKLLMLLDVPRWAAYKIAYSGNRYARITHNGWVHKAISNKRLAAFGLISMEDYYAKRRVAC

binding (MG153-1): binds
B2: MG153-1 (enzyme, not shown: small tags and cut ends)
chain: MDTSSLMEQILSKENLNAAYLQVVRNKGAAGVDGMNVEELGAYLSENGENIREQLRTRKYKPQPVRRVEIPKPDGGVRNLGVPTVVDRFVQQAVAQVLTPIFEEQFHDHSYGFRPNRCAQQAVLKALEMMNDGHSWIVDIDLAKFFDTVDHDKLMTIFGRTIKDGDVISVVRKFLVSGVMIDDEYEDTIVGTPQGGNISPLLANIMLNELDNELEARGLNFVRYADDLIIMVGSKQAADRVMKSVTRFIEEKLGLKVNAEKSKVDKPKGIKYLGFGFYFDTFAKAYKARPHPKAVTKFKAQMKKLTCRSWGVSNAYKVQKLNQLIRGWINYFKIGNMKRLCQRLDSNIRYRLRMCIWKHWKTPKNRAKNMMKLGLPAWAAWRSAYIHGYARVCRSRDVHRTITSERLKQFGLMSMTDYYTERSVAC

binding (MG153-3): binds
B3: MG153-3 (enzyme, not shown: small tags and cut ends)
chain: MDTSSLMEQILSKDNLNAAYLQVVRNKGAAGVDGMTVEELGTYLSENGESIREQLRTRKYKPQPVRRVEIPKPDGGIRNLGVPTVVDRFVQQAVAQVLTPIFEEQFHDHSYGFRPNRCAQQAVLKALEMMNDGHDWIVDIDLAKFFDTVDHDKLMTIFGRTIKDGDVISVVRKFLVSGVMIDDEYEDTIVGTPQGGNISPPLANIMLNELDKELEARGLDFVRYADDLIIMVGSRQAADRVMKSVTRFIEERLGLKVNAEKSKVDKPKGIKYLGFGFYFDSFAKAYKARPHQKAVAKFMAQMKKLTCRSWGVSNAYKVQKLNQLIRGWINYFKIGSMKGLCERLDCNIRYRLRMCIWKHWKTPQNRAKYLMQLGIGRKYAWSTAYTGARIAYVCQRGAMNMAITKERLTRFGLVSMADYYAKRRVTC

Reference: patent publication US20260193623A1 (METAGENOMI, published 2026)
